{"source": "PubChem BioAssay AID1259308 – NCATS – 2017", "purpose": "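Genes whose loss raises luciferase production in HEK293 cells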 (primary screen)", "cell system": "human HEK293 embryonic kidney cells stably expressing firefly luciferase (HEK-CMV-Luc2-Hygro)", "reagent": "single siRNA against human genes, 0.8 pmol siRNA per well", "duration": "72 h", "read-out": "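Luciferase light (ONE-Glo) measured on one replicate plate set and viability (CellTiter-Glo) on the other, scaled to a negative control siRNA, with robust z-scores and luciferase per cell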", "direction": "total luciferase, z-score: higher = more reporter protein produced", "call rule": "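Active when the median/MAD z-score for overall luciferase is greater than 3; a gene was taken forward for validation with new siRNAs if at least two of its three siRNAs passed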", "calls": "active = raised luciferase; inactive = no rise", "note": "In all, the deposit lists about 59,000 reagents; below is a random part of them. Of all reagents, about 1,510 (2.6%) are marked active. 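Calls use total luciferase alone and ignore viability, so some active siRNAs may act by altering cell number.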 Reagents against one gene are numbered here. Further read-outs or replicates are left out here. No sequences are given here."}
{"target": "NOMO2", "siRNA no.": 1, "total luciferase, z-score": 0.508, "activity call": "inactive"}
{"target": "NOMO2", "siRNA no.": 2, "total luciferase, z-score": -0.143, "activity call": "inactive"}
{"target": "NOMO2", "siRNA no.": 3, "total luciferase, z-score": 0.247, "activity call": "inactive"}
{"target": "SLAMF6", "siRNA no.": 1, "total luciferase, z-score": -0.683, "activity call": "inactive"}
{"target": "SLAMF6", "siRNA no.": 2, "total luciferase, z-score": 1.66, "activity call": "inactive"}
{"target": "SLAMF6", "siRNA no.": 3, "total luciferase, z-score": -0.27, "activity call": "inactive"}
{"target": "RPA1", "siRNA no.": 1, "total luciferase, z-score": 0.00506, "activity call": "inactive"}
{"target": "RPA1", "siRNA no.": 2, "total luciferase, z-score": 0.522, "activity call": "inactive"}
{"target": "RPA1", "siRNA no.": 3, "total luciferase, z-score": 0.149, "activity call": "inactive"}
{"target": "PTH1R", "siRNA no.": 1, "total luciferase, z-score": 0.0145, "activity call": "inactive"}
{"target": "PTH1R", "siRNA no.": 2, "total luciferase, z-score": 0.17, "activity call": "inactive"}
{"target": "PTH1R", "siRNA no.": 3, "total luciferase, z-score": -1.8, "activity call": "inactive"}

Continued (2 carried over from the part before).
{"target": "PTH1R", "siRNA no.": 2, "total luciferase, z-score": 0.17, "activity call": "inactive"}
{"target": "PTH1R", "siRNA no.": 3, "total luciferase, z-score": -1.8, "activity call": "inactive"}
{"target": "ATAD3A", "siRNA no.": 1, "total luciferase, z-score": 0.443, "activity call": "inactive"}
{"target": "ATAD3A", "siRNA no.": 2, "total luciferase, z-score": -0.559, "activity call": "inactive"}
{"target": "ATAD3A", "siRNA no.": 3, "total luciferase, z-score": -0.99, "activity call": "inactive"}
{"target": "PPARA", "siRNA no.": 1, "total luciferase, z-score": 1.84, "activity call": "inactive"}
{"target": "PPARA", "siRNA no.": 2, "total luciferase, z-score": 1.69, "activity call": "inactive"}
{"target": "PPARA", "siRNA no.": 3, "total luciferase, z-score": 0.0857, "activity call": "inactive"}
{"target": "PANK2", "siRNA no.": 1, "total luciferase, z-score": 0.276, "activity call": "inactive"}
{"target": "PANK2", "siRNA no.": 2, "total luciferase, z-score": -0.46, "activity call": "inactive"}
{"target": "PANK2", "siRNA no.": 3, "total luciferase, z-score": 1.04, "activity call": "inactive"}
